# In the supplement of paper PMC12067093, “Discovery and optimisation of a covalent ligand for TRIM25 and its application to targeted protein ubiquitination” (Chemical Science, 2025):
# By UniProt entry, the sequences of proteins in these tests, tags left out. Where a name states a change or a piece, a line headed by the entry shows the natural chain unless it says otherwise.
# UniProt Q7Z2T5: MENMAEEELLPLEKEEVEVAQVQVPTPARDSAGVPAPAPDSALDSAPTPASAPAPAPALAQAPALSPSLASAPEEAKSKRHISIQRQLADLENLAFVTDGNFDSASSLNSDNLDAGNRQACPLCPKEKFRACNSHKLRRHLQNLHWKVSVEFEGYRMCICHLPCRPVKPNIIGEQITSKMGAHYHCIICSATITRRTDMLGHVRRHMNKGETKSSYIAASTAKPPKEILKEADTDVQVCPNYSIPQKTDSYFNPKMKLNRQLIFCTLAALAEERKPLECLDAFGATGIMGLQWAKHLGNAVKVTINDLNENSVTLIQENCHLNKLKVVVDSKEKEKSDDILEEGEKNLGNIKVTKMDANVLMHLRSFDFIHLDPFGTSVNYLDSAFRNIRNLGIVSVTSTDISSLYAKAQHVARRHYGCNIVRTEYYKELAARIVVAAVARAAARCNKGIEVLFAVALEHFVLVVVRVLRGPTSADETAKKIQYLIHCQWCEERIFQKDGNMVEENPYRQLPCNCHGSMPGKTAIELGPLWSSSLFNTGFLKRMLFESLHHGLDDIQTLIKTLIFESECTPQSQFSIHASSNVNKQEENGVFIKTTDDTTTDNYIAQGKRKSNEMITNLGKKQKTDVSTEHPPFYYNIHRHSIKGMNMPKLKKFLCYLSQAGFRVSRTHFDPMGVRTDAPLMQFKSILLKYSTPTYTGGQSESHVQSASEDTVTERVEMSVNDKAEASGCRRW
# UniProt Q14142: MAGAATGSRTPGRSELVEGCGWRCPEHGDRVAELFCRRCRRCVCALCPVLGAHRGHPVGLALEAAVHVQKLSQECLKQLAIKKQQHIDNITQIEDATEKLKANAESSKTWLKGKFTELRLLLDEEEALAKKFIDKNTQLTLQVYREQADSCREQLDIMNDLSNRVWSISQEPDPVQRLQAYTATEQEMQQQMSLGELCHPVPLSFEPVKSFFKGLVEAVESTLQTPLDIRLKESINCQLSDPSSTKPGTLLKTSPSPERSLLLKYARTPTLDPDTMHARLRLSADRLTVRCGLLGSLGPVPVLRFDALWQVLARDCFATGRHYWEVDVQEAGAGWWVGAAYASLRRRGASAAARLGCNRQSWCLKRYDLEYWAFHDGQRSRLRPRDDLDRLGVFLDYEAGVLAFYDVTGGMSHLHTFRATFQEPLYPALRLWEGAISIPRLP
# UniProt O14545: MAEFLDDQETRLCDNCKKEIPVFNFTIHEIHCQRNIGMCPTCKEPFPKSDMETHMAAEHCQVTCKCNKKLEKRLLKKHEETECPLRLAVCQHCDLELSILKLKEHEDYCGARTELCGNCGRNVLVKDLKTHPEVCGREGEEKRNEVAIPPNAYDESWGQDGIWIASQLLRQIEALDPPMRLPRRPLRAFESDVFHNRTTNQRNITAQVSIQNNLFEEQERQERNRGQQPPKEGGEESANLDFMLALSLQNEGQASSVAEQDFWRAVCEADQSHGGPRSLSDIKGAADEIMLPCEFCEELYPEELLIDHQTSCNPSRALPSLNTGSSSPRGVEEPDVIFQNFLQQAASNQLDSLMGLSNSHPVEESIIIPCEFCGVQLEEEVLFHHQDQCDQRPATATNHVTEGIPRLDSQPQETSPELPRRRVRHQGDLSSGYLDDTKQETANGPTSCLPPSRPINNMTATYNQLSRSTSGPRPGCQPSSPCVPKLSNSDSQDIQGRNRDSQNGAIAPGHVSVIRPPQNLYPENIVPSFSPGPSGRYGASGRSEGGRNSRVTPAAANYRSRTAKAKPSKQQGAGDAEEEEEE
# UniProt O14773: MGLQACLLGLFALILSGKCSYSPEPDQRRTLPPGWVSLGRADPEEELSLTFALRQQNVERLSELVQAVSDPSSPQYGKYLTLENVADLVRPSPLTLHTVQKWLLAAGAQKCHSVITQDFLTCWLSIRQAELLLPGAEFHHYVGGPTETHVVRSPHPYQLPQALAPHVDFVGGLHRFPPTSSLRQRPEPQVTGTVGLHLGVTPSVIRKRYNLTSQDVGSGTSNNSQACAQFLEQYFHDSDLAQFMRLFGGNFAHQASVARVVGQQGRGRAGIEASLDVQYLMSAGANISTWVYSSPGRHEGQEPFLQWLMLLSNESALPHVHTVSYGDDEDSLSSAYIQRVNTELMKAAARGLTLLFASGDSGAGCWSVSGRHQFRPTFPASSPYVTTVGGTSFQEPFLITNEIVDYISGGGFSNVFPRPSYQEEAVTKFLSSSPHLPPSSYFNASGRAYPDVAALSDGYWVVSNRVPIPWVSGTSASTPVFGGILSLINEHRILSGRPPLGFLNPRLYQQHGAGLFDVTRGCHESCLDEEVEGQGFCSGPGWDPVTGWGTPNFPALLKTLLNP
# UniProt Q14258, whole entry, looked up: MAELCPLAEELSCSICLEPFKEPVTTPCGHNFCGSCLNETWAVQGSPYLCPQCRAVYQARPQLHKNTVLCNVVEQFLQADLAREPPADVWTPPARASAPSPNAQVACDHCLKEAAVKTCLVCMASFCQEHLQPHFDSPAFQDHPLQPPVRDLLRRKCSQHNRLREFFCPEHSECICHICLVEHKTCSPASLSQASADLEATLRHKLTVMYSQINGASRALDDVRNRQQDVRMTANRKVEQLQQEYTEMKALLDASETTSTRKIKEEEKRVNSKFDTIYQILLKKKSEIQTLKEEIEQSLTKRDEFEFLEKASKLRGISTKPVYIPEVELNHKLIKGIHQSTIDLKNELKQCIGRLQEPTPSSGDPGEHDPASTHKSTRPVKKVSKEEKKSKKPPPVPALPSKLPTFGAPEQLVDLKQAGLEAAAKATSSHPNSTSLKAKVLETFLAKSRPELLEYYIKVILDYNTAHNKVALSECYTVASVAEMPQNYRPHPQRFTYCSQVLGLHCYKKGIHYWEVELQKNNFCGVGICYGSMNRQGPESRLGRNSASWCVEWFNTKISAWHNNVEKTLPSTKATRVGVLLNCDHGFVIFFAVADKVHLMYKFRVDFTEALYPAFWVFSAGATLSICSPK
# UniProt Q9UL33, whole entry, looked up: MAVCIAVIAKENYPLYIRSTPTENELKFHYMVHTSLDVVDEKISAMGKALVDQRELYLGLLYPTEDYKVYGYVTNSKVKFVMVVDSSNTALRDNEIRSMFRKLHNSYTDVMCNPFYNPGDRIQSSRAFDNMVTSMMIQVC
# UniProt Q15654: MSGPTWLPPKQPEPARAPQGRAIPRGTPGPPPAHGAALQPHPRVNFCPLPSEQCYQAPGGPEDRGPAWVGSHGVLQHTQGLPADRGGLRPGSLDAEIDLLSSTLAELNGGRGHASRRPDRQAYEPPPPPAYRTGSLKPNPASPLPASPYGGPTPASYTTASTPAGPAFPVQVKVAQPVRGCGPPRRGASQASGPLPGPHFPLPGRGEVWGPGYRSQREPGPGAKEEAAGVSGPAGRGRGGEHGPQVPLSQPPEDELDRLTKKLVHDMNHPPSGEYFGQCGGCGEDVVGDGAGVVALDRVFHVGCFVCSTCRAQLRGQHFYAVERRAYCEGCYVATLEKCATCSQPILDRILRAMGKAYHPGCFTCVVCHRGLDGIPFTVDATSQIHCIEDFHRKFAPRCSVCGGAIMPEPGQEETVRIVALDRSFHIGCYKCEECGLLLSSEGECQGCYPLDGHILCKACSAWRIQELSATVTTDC
# UniProt P19474, whole entry, looked up: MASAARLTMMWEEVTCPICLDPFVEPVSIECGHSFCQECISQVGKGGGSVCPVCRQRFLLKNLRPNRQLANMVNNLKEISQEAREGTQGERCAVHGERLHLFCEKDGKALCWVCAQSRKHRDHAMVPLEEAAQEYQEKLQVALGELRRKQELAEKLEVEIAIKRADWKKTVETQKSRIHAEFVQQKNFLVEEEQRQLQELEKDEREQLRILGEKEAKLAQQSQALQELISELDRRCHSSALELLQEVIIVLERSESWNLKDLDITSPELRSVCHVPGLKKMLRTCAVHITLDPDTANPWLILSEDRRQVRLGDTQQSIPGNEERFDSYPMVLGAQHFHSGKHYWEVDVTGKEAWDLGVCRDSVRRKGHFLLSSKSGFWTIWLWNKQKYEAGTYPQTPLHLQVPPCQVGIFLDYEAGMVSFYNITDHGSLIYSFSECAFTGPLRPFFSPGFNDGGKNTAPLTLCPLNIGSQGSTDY
# UniProt Q13049: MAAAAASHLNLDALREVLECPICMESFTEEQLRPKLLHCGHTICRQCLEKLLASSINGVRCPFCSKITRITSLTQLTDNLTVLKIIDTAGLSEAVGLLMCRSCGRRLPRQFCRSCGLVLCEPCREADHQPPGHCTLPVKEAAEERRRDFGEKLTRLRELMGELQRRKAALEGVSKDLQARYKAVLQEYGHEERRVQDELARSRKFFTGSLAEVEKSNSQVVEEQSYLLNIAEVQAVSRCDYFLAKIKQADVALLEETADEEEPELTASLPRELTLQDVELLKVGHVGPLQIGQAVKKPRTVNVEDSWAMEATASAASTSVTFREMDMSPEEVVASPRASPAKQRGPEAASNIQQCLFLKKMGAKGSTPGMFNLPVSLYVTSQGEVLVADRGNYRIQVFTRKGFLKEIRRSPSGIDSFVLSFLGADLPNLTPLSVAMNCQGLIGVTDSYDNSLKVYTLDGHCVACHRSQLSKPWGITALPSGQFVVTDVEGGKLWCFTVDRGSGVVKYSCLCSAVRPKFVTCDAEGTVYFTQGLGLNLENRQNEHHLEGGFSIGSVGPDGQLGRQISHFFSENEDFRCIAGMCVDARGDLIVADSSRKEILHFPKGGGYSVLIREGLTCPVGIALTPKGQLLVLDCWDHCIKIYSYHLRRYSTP
# UniProt Q9UPN9: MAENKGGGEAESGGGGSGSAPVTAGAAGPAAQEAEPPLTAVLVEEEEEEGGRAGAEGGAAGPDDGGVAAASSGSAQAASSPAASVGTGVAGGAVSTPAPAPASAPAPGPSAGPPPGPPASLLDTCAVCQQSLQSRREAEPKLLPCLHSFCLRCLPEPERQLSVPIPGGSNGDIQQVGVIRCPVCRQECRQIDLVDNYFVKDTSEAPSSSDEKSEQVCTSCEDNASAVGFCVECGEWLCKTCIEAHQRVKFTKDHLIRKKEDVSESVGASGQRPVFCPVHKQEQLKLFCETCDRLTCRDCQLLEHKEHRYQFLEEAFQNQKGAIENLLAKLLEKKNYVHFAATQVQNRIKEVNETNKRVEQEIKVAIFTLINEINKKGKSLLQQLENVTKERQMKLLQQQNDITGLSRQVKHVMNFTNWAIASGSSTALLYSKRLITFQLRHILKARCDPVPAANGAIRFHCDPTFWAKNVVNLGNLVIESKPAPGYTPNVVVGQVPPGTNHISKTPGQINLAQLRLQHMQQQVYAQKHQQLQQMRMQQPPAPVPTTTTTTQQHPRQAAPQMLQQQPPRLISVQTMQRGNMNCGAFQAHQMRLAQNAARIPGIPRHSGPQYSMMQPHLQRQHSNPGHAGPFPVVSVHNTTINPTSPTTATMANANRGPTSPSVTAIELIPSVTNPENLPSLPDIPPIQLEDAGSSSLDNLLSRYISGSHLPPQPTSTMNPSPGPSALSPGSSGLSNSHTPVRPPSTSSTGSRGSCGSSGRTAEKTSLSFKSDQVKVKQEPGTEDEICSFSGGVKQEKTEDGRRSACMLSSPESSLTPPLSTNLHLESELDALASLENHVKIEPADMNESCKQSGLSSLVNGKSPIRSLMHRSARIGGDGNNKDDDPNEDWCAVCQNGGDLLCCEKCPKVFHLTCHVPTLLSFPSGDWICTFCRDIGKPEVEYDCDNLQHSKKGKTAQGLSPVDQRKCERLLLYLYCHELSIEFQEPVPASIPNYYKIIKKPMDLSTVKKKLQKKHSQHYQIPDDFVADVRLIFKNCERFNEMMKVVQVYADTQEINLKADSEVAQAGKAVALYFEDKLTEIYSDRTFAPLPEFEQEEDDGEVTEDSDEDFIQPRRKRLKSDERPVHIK
# UniProt Q9C037: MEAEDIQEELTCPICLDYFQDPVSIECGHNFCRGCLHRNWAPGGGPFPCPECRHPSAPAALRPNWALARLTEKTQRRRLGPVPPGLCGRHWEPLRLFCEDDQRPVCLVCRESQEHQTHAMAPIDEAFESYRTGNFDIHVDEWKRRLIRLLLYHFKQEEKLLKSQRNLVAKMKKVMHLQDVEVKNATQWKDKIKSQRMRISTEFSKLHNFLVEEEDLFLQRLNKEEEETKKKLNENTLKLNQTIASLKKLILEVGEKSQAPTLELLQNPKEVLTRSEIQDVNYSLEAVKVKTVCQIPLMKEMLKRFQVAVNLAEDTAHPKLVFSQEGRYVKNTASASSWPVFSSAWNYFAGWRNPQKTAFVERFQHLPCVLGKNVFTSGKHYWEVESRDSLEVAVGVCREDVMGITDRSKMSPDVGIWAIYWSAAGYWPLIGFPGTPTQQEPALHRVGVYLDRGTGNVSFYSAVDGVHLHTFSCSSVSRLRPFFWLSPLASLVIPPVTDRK
# UniProt Q9H3S4: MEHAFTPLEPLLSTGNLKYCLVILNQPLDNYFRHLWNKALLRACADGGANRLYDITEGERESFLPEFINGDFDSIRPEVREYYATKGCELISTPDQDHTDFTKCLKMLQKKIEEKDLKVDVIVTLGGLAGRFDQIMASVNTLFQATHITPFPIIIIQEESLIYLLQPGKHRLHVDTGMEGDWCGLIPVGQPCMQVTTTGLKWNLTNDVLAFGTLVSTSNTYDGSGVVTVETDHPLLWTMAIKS
# This is one part of the list.
# Compound: CC1Cc2ccccc2N1C(=O)C1CCCN(C1)C(=O)CCl (mixture of isomers) [TRIM25 ligand 11 (diastereomer mixture)]
# Assay: probe-labelled cysteine peptide fold change vs DMSO (competition) (log2 fold change); higher = less target engagement (more negative = stronger competition)
# Settings: THP-1, incubation time: 4 h
# 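Further: competitive chemoproteomic profiling in live THP-1 cells with an iodoacetamide desthiobiotin (IA-DTB) probe, comparing probe-labelled peptide intensities in compound-treated cells against DMSO-treated controls.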
Target,probe-labelled cysteine peptide fold change (10 µM),probe-labelled cysteine peptide fold change (50 µM)
TRAF6_Q9Y4K3_208_EIHDQNCPLANVICEYCNTILIR (UniProt Q9Y4K3),0.204,0.174
TRAPPC13_A5PLN9-4_326_ITNCSSER (UniProt A5PLN9),0.111,-0.11
TRMT1L_Q7Z2T5_164_MCICHLPCRPVKPNIIGEQITSK (UniProt Q7Z2T5),0.143,0.239
TRIM28_Q13263_221_HEPLVLFCESCDTLTCR (UniProt Q13263),0.0223,0.0632
TRMT1L_Q7Z2T5_265_QLIFCTLAALAEER (UniProt Q7Z2T5),-0.131,0.115
TRIM14_Q14142_20_SELVEGCGWR (UniProt Q14142),-0.0272,0.0312
TRAF3IP3_Q9Y228_508_KLQHCR (UniProt Q9Y228),-0.0651,-0.0223
TRAFD1_O14545_32_EIPVFNFTIHEIHCQR (UniProt O14545),0.202,0.322
TRIM28_Q13263_651+666_VCQKPGDLVMCNQCEFCFHLDCHLPALQDVPGEEWSCSLCHVLPDLK (UniProt Q13263),0.265,-0.196
TRIM28_Q13263_717_VLLALFCHEPCRPLHQLATDSTFSLDQPGGTLDLTLIR (UniProt Q13263),-0.498,0.0654
TPP1_O14773_111_CHSVITQDFLTCWLSIR (UniProt O14773),-0.0382,0.279
TRIM25_Q14258_475_VALSECYTVASVAEMPQNYRPHPQR (UniProt Q14258),-0.073,-0.184
TRIOBP_Q9H2D6_2111_SQEDGHIPPGYISQEACER (UniProt Q9H2D6),-0.0378,0.00666
TRMT1L_Q7Z2T5_656_FLCYLSQAGFR (UniProt Q7Z2T5),-0.357,-0.0738
TRIP12_Q14669_156_TESSCVK (UniProt Q14669),-0.1,-0.111
TRAPPC2L_Q9UL33_112_KLHNSYTDVMCNPFYNPGDR (UniProt Q9UL33),0.129,0.232
TRIP6_Q15654_307_VFHVGCFVCSTCR (UniProt Q15654),0.0462,0.0758

Target,probe-labelled cysteine peptide fold change (10 µM),probe-labelled cysteine peptide fold change (50 µM)
TRIM21_P19474_114_ALCWVCAQSR (UniProt P19474),0.0585,0.169
TRIM32_Q13049_100_IIDTAGLSEAVGLLMCR (UniProt Q13049),0.051,0.316
TRAFD1_O14545_116_TELCGNCGR (UniProt O14545),-0.00926,0.0109
TRIM24_O15164_882_DLSKPEVEYDCDAPSHNSEK (UniProt O15164),0.0355,-0.207
TRIM36_Q9NQ86_53_ELFTHPLILPCQHSICHK (UniProt Q9NQ86),-0.0673,0.0772
TRIP4_Q15650_171+173_LAVLLPGRHPCDCLGQK (UniProt Q15650),-0.116,-0.0952
TRIM25_Q14258_110_ASAPSPNAQVACDHCLK (UniProt Q14258),-0.0453,-0.00497
TRIM28_Q13263_713+717_VLLALFCHEPCRPLHQLATDSTFSLDQPGGTLDLTLIR (UniProt Q13263),-0.0638,-0.232
TPMT_P51580_70_VFFPLCGK (UniProt P51580),0.0659,-0.0326
TRAPPC9_Q96Q05_317_NCLSPEDIIDK (UniProt Q96Q05),0.0206,0.00656
TRIM33_Q9UPN9_276_EDVSESVGASGQRPVFCPVHK (UniProt Q9UPN9),0.125,0.0598
TRIM4_Q9C037_109_LFCEDDQRPVCLVCR (UniProt Q9C037),-0.0186,0.105
TRIM25_Q14258_157_CSQHNR (UniProt Q14258),0.411,0.441
TRAF2_Q12933_124_EYESCHEGR (UniProt Q12933),0.147,-0.19
TRIM33_Q9UPN9_241_TCIEAHQR (UniProt Q9UPN9),-0.0332,0.196
TPK1_Q9H3S4_88_GCELISTPDQDHTDFTK (UniProt Q9H3S4),0.0274,-0.182
